Experimental findings from paper PMC5173324 are described below.

In assay [1] the target is IP3R (endogenous, crude mitochondria fraction) (human (endogenous in HeLa)). The experiment in a line: native gel or EMSA; 2D blue-native / SDS-PAGE of a digitonin-solubilised crude mitochondria fraction of HeLa cells; second dimension analysed by western blot.
The target in assay [2] is VDAC (endogenous, crude mitochondria fraction) (human (endogenous in HeLa)). The description is as above.
Assay [3] concerns the target GST-IP3R∆CD. Kind of assay: pull-down; GST-IP3R∆CD on lysates of HeLa cells expressing HA-IRBIT S68A and FLAG-Bcl2l10 alone or in combination, TNE buffer, 4°C; only the target purified.
Assay [4] concerns the target GST-IP3R∆CD. The experiment in a line: pull-down; 10 μg GST fusion protein incubated with lysates of transfected HeLa cells, TNE buffer, 4°C, glutathione-Sepharose 4B, elution with 20 mM glutathione, western blot; for HA-IRBIT also with co-expressed FLAG-Bcl2l10 and with 0, 1 or 10 µM IP3; only the target purified. For orientation: Immunoblotting shows a protein as a band on a membrane.

Results are given in words; binding and its absence hold for the method and conditions named. Binding calls can cover weak binding; strength is not graded here. For some of these results: Binding seen in cells or lysates may run through a third protein. For some of these results: Tags and fused reporters may be left off the sequences shown.

B1: endogenous Bcl2l10 (protein, UniProt Q9HD36 1-204)
chain: MVDQLRERTTMADPLRERTELLLADYLGYCAREPGTPEPAPSTPEAAVLRSAAARLRQIHRSFFSAYLGYPGNRFELVALMADSVLSDSPGPTWGRVVTLVTFAGTLLERGPLVTARWKKWGFQPRLKEQEGDVARDCQRLVALLSSRLMGQHRAWLQAQGGWDGFCHFFRTPFPLAFWRKQLVQAFLSCLLTTAFIYLWTRLL
In the case of B1, the binding entry in assay [1] and in assay [2] was “binds” each time.

B2: FLAG-Bcl2l10 (protein, UniProt Q9HD36 1-204)
chain: MVDQLRERTTMADPLRERTELLLADYLGYCAREPGTPEPAPSTPEAAVLRSAAARLRQIHRSFFSAYLGYPGNRFELVALMADSVLSDSPGPTWGRVVTLVTFAGTLLERGPLVTARWKKWGFQPRLKEQEGDVARDCQRLVALLSSRLMGQHRAWLQAQGGWDGFCHFFRTPFPLAFWRKQLVQAFLSCLLTTAFIYLWTRLL
Regarding B2, the binding result in assay [3] and in assay [4] was “binds” throughout.
